Test results: PubChem BioAssay AID493014 (National Center for Advancing Translational Sciences (NCATS), 2011)
The other results are listed elsewhere or left out. Shown are side measurements of this screen, not its main read-out; they come without a call. The list favours compounds with an active or inconclusive main result. Potencies come from curve fits of mixed quality, noted in brackets.

Test: qHTS Assay to Find Inhibitors of Chronic Active B-Cell Receptor Signaling
Details: ABC-DLBCL IkBa-CBG/CBR reporter, luminescence ratio (green luciferase fused to IkBa over red control in TMD8 lymphoma cells), 4 h
Method in brief: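 TMD8 ABC-DLBCL cells carrying doxycycline-inducible green luciferase fused to IkappaBalpha plus unfused red luciferase were exposed to compounds (up to 46 uM) for 4 hrs at 37C. Activity came from the overlap-corrected green/red luminescence ratio.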

[1] = measured here: CBR red luminescence, cell number
[2] = measured here: IkBa-CBG green luminescence

Structure (SMILES)	AC50 [1]	AC50 [2]
O=C1/C(=C/c2ccc(F)cc2)SC(=S)N1Nc1ncc(C(F)(F)F)cc1Cl	11.6 µM [falling, partial curve]	–
COC(=O)c1ccc(COc2cc(C)ccc2C)o1	3.98 µM [rising, partial curve, poor fit]	–
Clc1ccc(-c2nnc(SCc3ccon3)o2)c(Cl)c1	2.06 µM [rising, partial curve, poor fit]	–
S=C(NCc1cccs1)Nc1ccc(Br)cc1Cl	2.51 µM [rising, partial curve, poor fit]	–
Cc1cc(C)n(-c2nc(-n3nc(C)cc3C)c3c4c(sc3n2)COC(C)(C)C4)n1	35.5 µM [rising, single point]	–
CC(=O)Nc1cccc(C(=O)OCC(=O)NCc2cc(C)c(O)c(C)c2)c1	25.9 µM [rising, partial curve, poor fit]	–
CCc1ccc(NC(=O)c2cnn3ccccc23)cc1	16.4 µM [falling, single point]	–
O=C(CS(=O)(=O)c1cn(CC(=O)N2CCCC2)c2ccccc12)Nc1ccccc1F	11.2 µM [falling, partial curve, poor fit]	–
Cc1cccc(-c2nc(Nc3ccc(O)cc3)c3ccccc3n2)c1	14.1 µM [falling, partial curve, poor fit]	–
CS(=O)(=O)N(CC(=O)NCCSc1ccccn1)c1cccc2ccccc12	6.51 µM [rising, full curve, poor fit]	–
O=C(NNC(=O)c1nn(-c2ccc(F)cc2)ccc1=O)c1ccc(C(F)(F)F)cc1	3.98 µM [rising, partial curve, poor fit]	–
Cc1ccc(C(=O)N2CCN(c3ccc(NC(=O)c4cccnc4)cc3)CC2)cc1	20.6 µM [falling, single point]	–
CCOc1ccc(OCc2ccc(C(=O)N3CCCC3)o2)cc1	23.1 µM [falling, single point]	–
COc1ccccc1C(=O)NNC(=O)c1cccc(F)c1	5.17 µM [falling, partial curve]	–
COC(=O)c1cscc1NC(C)=O	6.31 µM [falling, single point]	–
O=c1oc2ccccc2c2[nH]ccc12	2.82 µM [falling, partial curve, poor fit]	–
O=[N+]([O-])c1ccc(/C=N/Nc2nc(N3CCCCC3)nc(N3CCCCC3)n2)o1	29.1 µM [rising, single point]	–
COc1ccc(OCC(=O)NCc2ccc3c(c2)CCN3C(=O)c2cccc(C)c2)cc1	0.447 µM [falling, full curve, poor fit]	35.5 µM [falling, single point]
Oc1ccc(C(c2nnnn2C2CCCC2)N2CCc3ccccc3C2)cc1 (stereo unspecified)	11.2 µM [falling, partial curve, poor fit]	–
CCc1ccc(NC(=O)COC(=O)CN2C(=O)COc3ccccc32)cc1	20.6 µM [rising, single point]	–
CC(C)(C)C(=O)C(Cc1ccccc1Cl)n1cncn1 (stereo unspecified)	32.6 µM [falling, partial curve, poor fit]	–

Record cards, from the list above:
`COc1ccc(OCC(=O)NCc2ccc3c(c2)CCN3C(=O)c2cccc(C)c2)cc1` reads AC50 [1]: 0.447 µM [falling, full curve, poor fit]; AC50 [2]: 35.5 µM [falling, single point]
`O=[N+]([O-])c1ccc(/C=N/Nc2nc(N3CCCCC3)nc(N3CCCCC3)n2)o1` reads AC50 [1]: 29.1 µM [rising, single point]
`O=C(NNC(=O)c1nn(-c2ccc(F)cc2)ccc1=O)c1ccc(C(F)(F)F)cc1` reads AC50 [1]: 3.98 µM [rising, partial curve, poor fit]
`COC(=O)c1cscc1NC(C)=O` reads AC50 [1]: 6.31 µM [falling, single point]

Next part:

Structure (SMILES)	AC50 [1]	AC50 [2]
COC(=O)c1c(N)n(-c2ccc(NC(C)=O)cc2)c2nc3ccccc3nc12	2.91 µM [rising, single point]	–
COc1ccccc1/C=C/c1ccc2cccc(O)c2n1	35.5 µM [rising, single point]	–
CC1(c2ccc(OCC#N)cc2)C=C(c2ccc(OCC#N)cc2)n2nc(C(F)(F)F)nc2N1 (stereo unspecified)	16.4 µM [falling, partial curve, poor fit]	–
COc1ccc(CNC(=O)c2cccnc2SC)cc1OC	7.94 µM [falling, partial curve, poor fit]	–
CCc1c(C(=O)Nc2ccc(S(=O)(=O)N3CCOCC3)cc2)csc1C	3.26 µM [rising, single point]	–
COc1ccc(NC(=S)NCc2cccs2)c(OC)c1	29.1 µM [falling, single point]	–
N#Cc1c2n(c3c(=S)nc[nH]c13)CCCCC2	7.08 µM [falling, partial curve]	–
CCCc1cnc(N2CCN(C(=S)NC)CC2)nc1	2.51 µM [rising, partial curve, poor fit]	–
FC(F)(F)c1ccccc1-n1c(-c2ccco2)n[nH]c1=S	2.51 µM [falling, partial curve, poor fit]	–
COc1ccc(-c2csc(Nc3ccc(S(=O)(=O)Nc4cc(C)on4)cc3)n2)cc1C	35.5 µM [falling, single point]	–
Cc1c(CC(=O)O)c(=O)oc2cc3c(cc12)CCC(C)(C)O3	10 µM [rising, partial curve, poor fit]	–
CC1(C)CC(=O)c2sc(NC(=O)c3ccco3)nc2C1	11.6 µM [falling, partial curve, poor fit]	–
O=C(CCc1ccccn1)NC1CCCc2c1cnn2-c1ccc(F)cc1F (stereo unspecified)	5.62 µM [rising, single point]	–
Cc1c(C#N)c(O)n(C)c(=O)c1N=Nc1ccc(S(N)(=O)=O)cc1	10 µM [falling, single point]	14.1 µM [rising, partial curve, poor fit]
Cc1ccc(O)c(-c2cc(C(=O)Nc3cccnc3)[nH]n2)c1	11.2 µM [falling, partial curve]	–
CN(C(=O)c1coc(=O)c2ccccc12)c1ccc(Br)cc1	5.62 µM [rising, single point]	–
CCN1CCN(C(=O)/C(C#N)=C/c2ccc(OC(F)F)cc2)CC1	14.1 µM [falling, partial curve, poor fit]	–
Cc1ccc(NC(=O)COc2ncnc3cc([N+](=O)[O-])ccc23)cc1S(=O)(=O)N1CCOCC1	15.8 µM [falling, single point]	–
Cc1noc(C)c1C(=O)Nc1nc(C23CC4CC(CC(C4)C2)C3)cs1	8.2 µM [falling, partial curve, poor fit]	–
Cc1nnc(C)c2c(C)n(-c3ccc(Br)cc3)c(C)c12	29.1 µM [rising, partial curve, poor fit]	–
Cc1ccnc(SCC(=O)O)n1	14.1 µM [rising, single point]	–

Structure (SMILES)	AC50 [1]	AC50 [2]
CCn1c(=O)c(=O)[nH]c2cc(C(=O)N3CCN(c4ccccc4F)CC3)ccc21	6.51 µM [falling, single point]	3.66 µM [rising, partial curve, poor fit]
COc1ccc(C2C(C(=O)c3cccs3)=C(O)C(=O)N2c2nncs2)cc1 (stereo unspecified)	2.51 µM [falling, partial curve, poor fit]	–
O=C1CC(c2ccc(Cl)c([N+](=O)[O-])c2)c2ccc3ccccc3c2N1 (stereo unspecified)	4.61 µM [falling, full curve]	–
CCCCN(CC)CCCNC(=O)c1cn(C)c(=O)c2c1c1ccccc1n2C	11.2 µM [rising, partial curve, poor fit]	–
CC(C)(C)OC(=O)NC(CCCCNC=O)C(=O)O (stereo unspecified)	0.461 µM [rising, full curve, poor fit]	–
Cc1nn(C)c(C(=O)NNC(=S)NCc2ccco2)c1Br	35.5 µM [falling, single point]	–
COC(=O)c1cc(Nc2cc(C)c3c(O)cccc3n2)cc(C(=O)OC)c1	2.24 µM [falling, partial curve, poor fit]	–
COc1ccc(CCN2C(=O)CC(N3CCN(c4ccccn4)CC3)C2=O)cc1OC (stereo unspecified)	4.61 µM [falling, single point]	–
CC(NCC(O)COCCC12CC3CC(CC(C3)C1)C2)c1ccccc1 (stereo unspecified)	15.8 µM [falling, single point]	–
COc1ccc(-c2ccc(=O)n(CC(=O)Nc3cc(OC)ccc3OC)n2)cc1	0.708 µM [rising, full curve, poor fit]	–
Cc1cccc(-n2ncc3c(NNC(=O)c4ccccc4Cl)ncnc32)c1	0.2 µM [falling, full curve, poor fit]	–
O=c1[nH]c(C2CCCN(S(=O)(=O)c3ccccc3)C2)nc2c1nnn2Cc1ccccc1Br (stereo unspecified)	22.4 µM [falling, single point]	–
O=C(NNS(=O)(=O)c1ccc(F)cc1F)C1Cc2c(ccc3ccccc23)O1 (stereo unspecified)	0.355 µM [falling, full curve, poor fit]	–
CN1/C(=C/C(=O)c2ccc(Cl)cc2)Sc2cc3c(cc21)OCO3	0.0259 µM [rising, full curve, poor fit]	–
COc1ccc(NC(=O)Nc2c(C)n(C)n(-c3ccccc3)c2=O)cc1	–	6.51 µM [rising, partial curve, poor fit]
CCOC(=O)C(C)n1nc(/C=C/c2ccccc2)ccc1=O (stereo unspecified)	11.2 µM [rising, partial curve, poor fit]	–
CCN(CC)CCNC(=O)c1cc2c(=O)n(C)c3ccccc3c2s1	7.94 µM [falling, partial curve]	–
COc1ccc(C(=O)NC(=S)N2CCCCC2c2cccnc2)cc1OC (stereo unspecified)	31.6 µM [rising, single point]	–
COc1ccc(/C=N/NC2=NCCCCC2)cc1	0.13 µM [falling, full curve, poor fit]	–
Cc1nc(C(=O)Nc2ccccc2Cl)cc2c1[nH]c1ccccc12	0.0891 µM [falling, full curve, poor fit]	–
Cc1cc(C)n(CCCNC(=O)c2cc(COc3ccc(C)c(C)c3)on2)n1	12.6 µM [falling, partial curve, poor fit]	–
